Measurements published in patent US20230243810A1.
These are yes or no findings as the source states them, for the method shown. Binding seen in cells or lysates may run through a third protein. Some results given as binding are weak or reduced against the parent protein; the word gives no strength.

Columns and labels:
Assay in all cases: co-immunoprecipitation with anti-FGFR3 (C-15) from stable U2OS cell lysates, plus immuno-colocalization
[1] = biological target: ACH FGFR3 (human FGFR3 G380R) (human) (UniProt P22607)
[2] = biological target: HYP FGFR3 (human FGFR3 N540K) (human) (UniProt P22607)
[3] = biological target: TDII FGFR3 (human FGFR3 K650E) (human) (UniProt P22607)

Measured: binding

SH2(SH2B)-RrGFP fusion protein (from UniProt Q9NRF2 511-632)
binds: all assays above
